Measurements published in PMC7819943, “Rice protein-binding microarrays: a tool to detect cis-acting elements near promoter regions in rice”.
The list shows a part of the results.

The chains behind the UniProt entries cited, without tags or fusion partners.
UniProt Q0JBA9, entry or part of it: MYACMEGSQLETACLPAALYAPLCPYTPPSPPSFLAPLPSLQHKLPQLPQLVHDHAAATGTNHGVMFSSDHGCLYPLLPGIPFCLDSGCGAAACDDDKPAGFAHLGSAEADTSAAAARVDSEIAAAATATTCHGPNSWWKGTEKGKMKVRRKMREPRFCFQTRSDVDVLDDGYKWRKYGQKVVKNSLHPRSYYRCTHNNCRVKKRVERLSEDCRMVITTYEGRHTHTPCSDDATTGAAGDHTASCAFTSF

Target: OsWRKY34 (Oryza sativa, UniProt Q0JBA9 1-250)
Test: protein-binding microarray (RPBM); PBS, 2% BSA, 51.3 ng/ul salmon testes DNA, 50 uM zinc acetate, 200 nM TF, 25 C, 1 h; high values mean tight binding
Settings: protein: recombinant; tags: N-terminal polyhistidine and DsRed monomer fusion (pET32a); label: CyDye5-dUTP incorporated in the synthesized complementary strand; 3' TTTTT single-stranded linker to array surface; dsDNA, one strand shown
Procedure, shortened: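 The binding signal is fluorescence intensity per array feature (arbitrary units). Readings came from an Axon 4000B scanner after a washed, 2% BSA-blocked, double-stranded custom Agilent array had been incubated for 1 h at 25 °C with 200 nM protein and 50 µM zinc acetate. The protein was a Ni–NTA-purified transcription factor fused N-terminally to polyhistidine and DsRed, expressed in E. coli BL21-CodonPlus.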

For “TTTTCTATTTCCCACTACTTTTCGTCATTTTTCTAATATTCGGAGTCACCTAGTGCAG”, which binding signal is on record?
Its binding signal is 18100 fluorescence intensity (a.u.).

“GTAAACAATATTATCTATATCTACTTTTCTTTTCTTTTTTCGGAGTCACCTAGTGCAG” was tested. Which binding signal did it give?
The binding signal was 8840 fluorescence intensity (a.u.).

How did the binding signal turn out when “AGTAGTTAGCCTACTAGTACCATATATTAGCTCACGCCAACGGAGTCACCTAGTGCAG” was run?
The binding signal was 8560 fluorescence intensity (a.u.).

“AGGGGCTTGATTCGGTGGAGATTGTGATTTTGCGAGGGCTCGGAGTCACCTAGTGCAG” was tested. Which binding signal did it give?
Its binding signal is 10100 fluorescence intensity (a.u.).

For “CAGCACCAACTCTCGTACGCCGCTGATATACCGTATAAAACGGAGTCACCTAGTGCAG”, which binding signal is on record?
The binding signal was 8430 fluorescence intensity (a.u.).

With “TCTATGTGTCTGGCCGGTTTTCTTCTCCATTGAAGTCTATCGGAGTCACCTAGTGCAG” as the sequence, how does the binding signal read?
The binding signal was 9080 fluorescence intensity (a.u.).

Which binding signal does the source give for “ACCTCTGGCTCTAGCTCCACCTCTTCTGAAGCTGGAGCCCCGGAGTCACCTAGTGCAG” here?
Its binding signal is 8150 fluorescence intensity (a.u.).

For “CGTGTCGGTGTCTCATCTCTCTCTCTCTTCCCATCCGCCGCGGAGTCACCTAGTGCAG”, which binding signal is on record?
The binding signal was 8790 fluorescence intensity (a.u.).

With “CACAGCCAATTCATCGAACACCTTGTCTGCTAACACCATGCGGAGTCACCTAGTGCAG” as the sequence, how does the binding signal read?
Its binding signal is 8080 fluorescence intensity (a.u.).

How did the binding signal turn out when “CGCGCCTGTCTGTCTCTGTTTGATTGATTCTTCTACGTCGCGGAGTCACCTAGTGCAG” was run?
Its binding signal is 8610 fluorescence intensity (a.u.).

For “GGGAATCTCTGTCCAAATAAAGGCCTTTGGCTCATCTCTGCGGAGTCACCTAGTGCAG”, which binding signal is on record?
Its binding signal is 8070 fluorescence intensity (a.u.).

How did the binding signal turn out when “CCGCTCCTCCGCCTCCATTTCCACGACTGCTTCGTCAGGGCGGAGTCACCTAGTGCAG” was run?
The binding signal was 8220 fluorescence intensity (a.u.).

Which binding signal does the source give for “GGAGCTGACAATTGGGTCCCAAATTTTTTTATTTTCATTCCGGAGTCACCTAGTGCAG” here?
The binding signal was 8730 fluorescence intensity (a.u.).

How did the binding signal turn out when “AGATCAGAGGGTGTATTGCAGTATTGGGTAGTTGGATATGCGGAGTCACCTAGTGCAG” was run?
Its binding signal is 8460 fluorescence intensity (a.u.).

For “CGCCACCTCCGCATTCCGTTCCGACCAGCCGATCGGTTTCCGGAGTCACCTAGTGCAG”, which binding signal is on record?
The binding signal was 8750 fluorescence intensity (a.u.).

Which binding signal does the source give for “TGTGTATGGGAAATGGTATCTCTTGCTGCACTGTCAGAAACGGAGTCACCTAGTGCAG” here?
Its binding signal is 10300 fluorescence intensity (a.u.).

How did the binding signal turn out when “CGGGTACATTGATCCTATCCCTTATCACGGCAACACGCAACGGAGTCACCTAGTGCAG” was run?
The binding signal was 8530 fluorescence intensity (a.u.).

For “GGTTCCTAACAAACAGTATCCATGAGGTGTTACTTTACGTCGGAGTCACCTAGTGCAG”, which binding signal is on record?
Its binding signal is 8900 fluorescence intensity (a.u.).

Which binding signal does the source give for “CCACGTGGCGGGCGAACCCATCCCTCCCGGCCCCTACCCGCGGAGTCACCTAGTGCAG” here?
Its binding signal is 8590 fluorescence intensity (a.u.).

How did the binding signal turn out when “GCCTTTTTCTTCCACCGTTGCGAGTTCTCTCTGCCTGCGCCGGAGTCACCTAGTGCAG” was run?
The binding signal was 12800 fluorescence intensity (a.u.).

“AAACCCTGGGTTTTCGTATCCAACGTTTGATCATCTGTCTCGGAGTCACCTAGTGCAG” was tested. Which binding signal did it give?
Its binding signal is 8310 fluorescence intensity (a.u.).

Which binding signal does the source give for “CCCCGCGCTCGTCTCTTCGCGCCCAGATATTTCACCACGTCGGAGTCACCTAGTGCAG” here?
The binding signal was 13400 fluorescence intensity (a.u.).

Which binding signal does the source give for “CATCTCCCAGATCCGCCTGTCTCCGACCTCCACACCGATGCGGAGTCACCTAGTGCAG” here?
Its binding signal is 9790 fluorescence intensity (a.u.).

How did the binding signal turn out when “TTGTCTGGATTCCACAGAATCACGCCTCGGATCTTCTGCGCGGAGTCACCTAGTGCAG” was run?
Its binding signal is 8150 fluorescence intensity (a.u.).

How did the binding signal turn out when “ATACTCACAGCCCCTATATCTCTCCCTTTTTTTAAAAAAGCGGAGTCACCTAGTGCAG” was run?
The binding signal was 9390 fluorescence intensity (a.u.).

“CCATTTCCGTTTAGTGACAGATAGTTTATGTGATCAGCTCCGGAGTCACCTAGTGCAG” was tested. Which binding signal did it give?
Its binding signal is 9310 fluorescence intensity (a.u.).

For “GGGGCGCAGGGGAGGGAGGAAAGGAGGCGGAGCACGGCGTCGGAGTCACCTAGTGCAG”, which binding signal is on record?
Its binding signal is 10500 fluorescence intensity (a.u.).

Which binding signal does the source give for “TTGCCGCTGCAGGCGCTGCCGCCGTTGAGCCGACTCGATTCGGAGTCACCTAGTGCAG” here?
The binding signal was 9260 fluorescence intensity (a.u.).

Which binding signal does the source give for “AGGTATCGCAGGATCCTAACCATTCACATGTTGTCGGGGACGGAGTCACCTAGTGCAG” here?
Its binding signal is 9040 fluorescence intensity (a.u.).

“CTGGGCGTGCCACGTCGACGTCCAGCTCAGCATCACCATACGGAGTCACCTAGTGCAG” was tested. Which binding signal did it give?
The binding signal was 8440 fluorescence intensity (a.u.).

For “TGACTTGATATTACCTTTTGTCCGGTTTTTATTGTTGTGTCGGAGTCACCTAGTGCAG”, which binding signal is on record?
Its binding signal is 8670 fluorescence intensity (a.u.).

“CACACGCGGGTCTTCCTCGTTTGCGCAACTGCATCCACGACGGAGTCACCTAGTGCAG” was tested. Which binding signal did it give?
The binding signal was 8240 fluorescence intensity (a.u.).

For “CTTGCTGTTACGCACCACATTGATTTACTTTCTTTTTCTTCGGAGTCACCTAGTGCAG”, which binding signal is on record?
The binding signal was 11600 fluorescence intensity (a.u.).

Which binding signal does the source give for “ACATTCAATTTTATTCATATATCCCTTACCCTTTCATTTGCGGAGTCACCTAGTGCAG” here?
Its binding signal is 9360 fluorescence intensity (a.u.).

“GTGTCTATGGAGTATATTTTTTCTTTTCTGATTGATTGAACGGAGTCACCTAGTGCAG” was tested. Which binding signal did it give?
The binding signal was 9530 fluorescence intensity (a.u.).

For “TTAATCAGTTTCTTTAATCGGGTGGTGTCTATTTACTAATCGGAGTCACCTAGTGCAG”, which binding signal is on record?
The binding signal was 12000 fluorescence intensity (a.u.).

Which binding signal does the source give for “CACACACACAAAACCGCATTACTACTCGATCGCCGGCGTCCGGAGTCACCTAGTGCAG” here?
Its binding signal is 11000 fluorescence intensity (a.u.).

How did the binding signal turn out when “TGTGTTCTCCTTGCCGATCCCTTGCGCTAGCCATCTTCCGCGGAGTCACCTAGTGCAG” was run?
The binding signal was 9590 fluorescence intensity (a.u.).

“AGTTACCGTGCCGGCTGCATGCTCGATGTAAACAAAGACACGGAGTCACCTAGTGCAG” was tested. Which binding signal did it give?
The binding signal was 8350 fluorescence intensity (a.u.).

Which binding signal does the source give for “AAATCTTAATTGAAGTGTAGTGGTAGTTTGTATGTTAGTTCGGAGTCACCTAGTGCAG” here?
Its binding signal is 8380 fluorescence intensity (a.u.).

Which binding signal does the source give for “AAAATGAATTTTGTTTTGATGCTGTTTCATTCAACTGACACGGAGTCACCTAGTGCAG” here?
The binding signal was 9080 fluorescence intensity (a.u.).

How did the binding signal turn out when “CCGGCGGCGGCTTTAGGGTTAGGGTTTTGTTTTTTTAGATCGGAGTCACCTAGTGCAG” was run?
Its binding signal is 10100 fluorescence intensity (a.u.).
